# Assay results published in the supplement of paper PMC8728848.
# The list shows a part of the results.
# B1: Flo10 (Saccharomyces cerevisiae), P36170 (protein)
# chain: MPVAARYIFLTGLFLLSVANVALGTTEACLPAGEKKNGMTINFYQYSLKDSSTYSNPSYMAYGYADAEKLGSVSGQTKLSIDYSIPCNGASDTCACSDDDATEYSASQVVPVKRGVKLCSDNTTLSSKTEKRENDDCDQGAAYWSSDLFGFYTTPTNVTVEMTGYFLPPKTGTYTFGFATVDDSAILSVGGNVAFECCKQEQPPITSTDFTINGIKPWNADAPTDIKGSTYMYAGYYYPIKIVYSNAVSWGTLPVSVVLPDGTEVNDDFEGYVFSFDDNATQAHCSVPNPAEHARTCVSSATSSWSSSEVCTECTETESTSYVTPYVTSSSWSSSEVCTECTETESTSTSTPYVTSSSSSSSEVCTECTETESTSYVTPYVSSSTAAANYTSSFSSSSEVCTECTETESTSTSTPYVTSSSWSSSEVCTECTETESTSYVTPYVSSSTAAANYTSSFSSSSEVCTECTETESTSTSTPYVTSSSSSSSEVCTECTETESTSYVTPYVSSSTAAANYTSSFSSSSEVCTECTETESTSTSTPYVTSSSWSSSEVCTECTETESTSYVTPYVSSSTAAANYTSSFSSSSEVCTECTETESTSTSTPYATSSTGTATSFTASTSNTMTSLVQTDTTVSFSLSSTVSEHTNAPTSSVESNASTFISSNKGSVKSYVTSSIHSITPMYPSNQTVTSSSVVSTPITSESSESSASVTILPSTITSEFKPSTMKTKVVSISSSPTNLITSYDTTSKDSTVGSSTSSVSLISSISLPSSYSASSEQIFHSSIVSSNGQALTSFSSTKVSSSESSESHRTSPTTSSESGIKSSGVEIESTSTSSFSFHETSTASTSVQISSQFVTPSSPISTVAPRSTGLNSQTESTNSSKETMSSENSASVMPSSSATSPKTGKVTSDETSSGFSRDRTTVYRMTSETPSTNEQTTLITVSSCESNSCSNTVSSAVVSTATTTINGITTEYTTWCPLSATELTTVSKLESEEKTTLITVTSCESGVCSETASPAIVSTATATVNDVVTVYSTWSPQATNKLAVSSDIENSASKASFVSEAAETKSISRNNNFVPTSGTTSIETHTTTTSNASENSDNVSASEAVSSKSVTNPVLISVSQQPRGTPASSMIGSSTASLEMSSYLGIANHLLTNSGISIFIASLLLAIV
# Assays:
# Experiment in all cases: glycan array binding signal (z-score within array); higher = stronger binding
# Conditions in all cases: glycan notation: IUPAC condensed, linker removed
# Fuc(a1-2)[Gal(a1-3)]Gal = molecular target: Fuc(a1-2)[Gal(a1-3)]Gal
# Method in brief: (§1)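 Arrays were curated from the Consortium for Functional Glycomics database, 3228 in total, and kept only where the protein sequence was available. Binding is expressed as a within-array Z-score. This score was averaged across arrays of the same protein sequence at different concentrations or buffers and across linkers, and negative values can be read as non-binding.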
# [1] = molecular target: Fuc(a1-2)[Gal(a1-3)]Gal(b1-3)GlcNAc
# Method in brief: as §1
# [2] = molecular target: Fuc(a1-2)[Gal(a1-3)]Gal(b1-3)GlcNAc(b1-2)Man(a1-3)[Fuc(a1-2)[Gal(a1-3)]Gal(b1-3)GlcNAc(b1-2)Man(a1-6)]Man(b1-4)GlcNAc(b1-4)GlcNAc
# Method in brief: as §1
# [3] = molecular target: Fuc(a1-2)[Gal(a1-3)]Gal(b1-4)Glc
# Method in brief: as §1
# [4] = molecular target: Fuc(a1-2)[Gal(a1-3)]Gal(b1-4)GlcNAc
# Method in brief: as §1
# [5] = molecular target: Fuc(a1-2)[Gal(a1-3)]Gal(b1-4)GlcNAc(b1-2)Man(a1-3)[Fuc(a1-2)[Gal(a1-3)]Gal(b1-4)GlcNAc(b1-2)Man(a1-6)]Man(b1-4)GlcNAc(b1-4)GlcNAc
# Method in brief: as §1
# [6] = molecular target: Fuc(a1-2)[Gal(a1-3)]Gal(b1-4)[Fuc(a1-3)]GlcNAc
# Method in brief: as §1
# [7] = molecular target: Fuc(a1-2)[Gal(a1-4)]Gal(b1-4)GlcNAc
# Method in brief: as §1
# [8] = molecular target: Fuc(a1-2)[GalNAc(a1-3)]Gal
# Method in brief: as §1
# [9] = molecular target: Fuc(a1-2)[GalNAc(a1-3)]Gal(b1-3)GalNAc(a1-3)[Fuc(a1-2)]Gal(b1-4)GlcNAc
# Method in brief: as §1
# [10] = molecular target: Fuc(a1-2)[GalNAc(a1-3)]Gal(b1-3)GlcNAc
# Method in brief: as §1
# [11] = molecular target: Fuc(a1-2)[GalNAc(a1-3)]Gal(b1-3)GlcNAc(b1-2)Man(a1-3)[Fuc(a1-2)[GalNAc(a1-3)]Gal(b1-3)GlcNAc(b1-2)Man(a1-6)]Man(b1-4)GlcNAc(b1-4)GlcNAc
# Method in brief: as §1
# [12] = molecular target: Fuc(a1-2)[GalNAc(a1-3)]Gal(b1-4)Glc
# Method in brief: as §1
# [13] = molecular target: Fuc(a1-2)[GalNAc(a1-3)]Gal(b1-4)GlcNAc
# Method in brief: as §1
# [14] = molecular target: Fuc(a1-2)[GalNAc(a1-3)]Gal(b1-4)GlcNAc(b1-2)Man(a1-3)[Fuc(a1-2)[GalNAc(a1-3)]Gal(b1-4)GlcNAc(b1-2)Man(a1-6)]Man(b1-4)GlcNAc(b1-4)GlcNAc
# Method in brief: as §1
# [15] = molecular target: Fuc(a1-2)[GalNAc(a1-3)]Gal(b1-4)GlcNAc(b1-3)Gal(b1-4)GlcNAc
# Method in brief: as §1
# [16] = molecular target: Fuc(a1-2)[GalNAc(a1-3)]Gal(b1-4)GlcNAc(b1-3)Gal(b1-4)GlcNAc(b1-3)Gal(b1-4)GlcNAc
# Method in brief: as §1
# [17] = molecular target: Fuc(a1-2)[GalNAc(a1-3)]Gal(b1-4)[Fuc(a1-3)]GlcNAc
# Method in brief: as §1
# [18] = molecular target: Fuc(a1-2)[GalNAc(a1-4)]Gal(b1-4)GlcNAc
# Method in brief: as §1
# [19] = molecular target: Fuc(a1-2)[GalNAc(b1-3)]Gal
# Method in brief: as §1
# Fuc(a1-3)GlcNAc = molecular target: Fuc(a1-3)GlcNAc
# Method in brief: as §1
# [20] = molecular target: Fuc(a1-3)[Gal(b1-4)]Glc6S
# Method in brief: as §1
# [21] = molecular target: Fuc(a1-3)[Gal(b1-4)]GlcNAc
# Method in brief: as §1
# [22] = molecular target: Fuc(a1-3)[Gal(b1-4)]GlcNAc(b1-2)Man(a1-3)[Fuc(a1-3)[Gal(b1-4)]GlcNAc(b1-2)Man(a1-6)]Man(b1-4)GlcNAc(b1-4)GlcNAc
# Method in brief: as §1
# [23] = molecular target: Fuc(a1-3)[Gal(b1-4)]GlcNAc(b1-3)Gal(b1-3)[Fuc(a1-4)]GlcNAc
# Method in brief: as §1
# [24] = molecular target: Fuc(a1-3)[Gal(b1-4)]GlcNAc(b1-3)GalNAc
# Method in brief: as §1
# [25] = molecular target: Fuc(a1-3)[Gal(b1-4)]GlcNAc(b1-4)Gal(b1-4)[Fuc(a1-3)]GlcNAc
# Method in brief: as §1
# [26] = molecular target: Fuc(a1-3)[Gal(b1-4)]GlcNAc(b1-4)Gal(b1-4)[Fuc(a1-3)]GlcNAc(b1-4)Gal(b1-4)[Fuc(a1-3)]GlcNAc
# Method in brief: as §1
# [27] = molecular target: Fuc(a1-3)[Gal(b1-4)]GlcNAc(b1-6)[Gal(b1-3)GlcNAc(b1-3)]Gal(b1-4)Glc
# Method in brief: as §1
# [28] = molecular target: Fuc(a1-3)[Gal(b1-4)]GlcNAc6S
# Method in brief: as §1
binder,measurement,setting,value
B1,glycan array binding signal (z-score),Fuc(a1-2)[Gal(a1-3)]Gal,-0.579
same,glycan array binding signal (z-score),[1],-0.233
same,glycan array binding signal (z-score),[2],-0.584
same,glycan array binding signal (z-score),[3],-0.49
same,glycan array binding signal (z-score),[4],-0.515
same,glycan array binding signal (z-score),[5],0.105
same,glycan array binding signal (z-score),[6],1.68
same,glycan array binding signal (z-score),[7],0.109
same,glycan array binding signal (z-score),[8],1.09
same,glycan array binding signal (z-score),[9],1.12
same,glycan array binding signal (z-score),[10],-0.144
same,glycan array binding signal (z-score),[11],-0.763
same,glycan array binding signal (z-score),[12],-0.594
same,glycan array binding signal (z-score),[13],0.515
same,glycan array binding signal (z-score),[14],3.27
same,glycan array binding signal (z-score),[15],4.78
same,glycan array binding signal (z-score),[16],5.34
same,glycan array binding signal (z-score),[17],-0.6
same,glycan array binding signal (z-score),[18],-0.76
same,glycan array binding signal (z-score),[19],-0.704
same,glycan array binding signal (z-score),Fuc(a1-3)GlcNAc,-0.833
same,glycan array binding signal (z-score),[20],0.096
same,glycan array binding signal (z-score),[21],0.685
same,glycan array binding signal (z-score),[22],0.178
same,glycan array binding signal (z-score),[23],-0.763
same,glycan array binding signal (z-score),[24],-0.536
same,glycan array binding signal (z-score),[25],-0.637
same,glycan array binding signal (z-score),[26],-0.607
same,glycan array binding signal (z-score),[27],0.141
same,glycan array binding signal (z-score),[28],0.388

# In another format: results already given
binder | measurement | setting | value
B1 | glycan array binding signal (z-score) | [18] | -0.76
same | glycan array binding signal (z-score) | [19] | -0.704
